Counter-ions that a name gives are not always drawn. The list shows a part of the results. Most values come without repeats; read them as rough.
How the values were obtained:
Assay in all cases: reduction in cell viability relative to untreated/vehicle; higher = more growth inhibition
Conditions in all cases: 200 nM; 72 h
M229P = test system: M229P (parental melanoma line)
M229R = test system: M229R (matched melanoma line resistant to BRAF inhibitors)
M238P = test system: M238P (parental melanoma line)
M238R = test system: M238R (matched melanoma line resistant to BRAF inhibitors)
M249P = test system: M249P (parental melanoma line)
M249R = test system: M249R (matched melanoma line resistant to BRAF inhibitors)
UACC62P = test system: UACC62P (parental melanoma line)
UACC62R = test system: UACC62R (matched melanoma line resistant to BRAF inhibitors)

SMILES | reduction in cell viability (M229P) [%] | reduction in cell viability (M229R) [%] | reduction in cell viability (M238P) [%] | reduction in cell viability (M238R) [%] | reduction in cell viability (M249P) [%] | reduction in cell viability (M249R) [%] | reduction in cell viability (UACC62P) [%] | reduction in cell viability (UACC62R) [%]
Cc1ccc(NC(=O)c2cccc(C(C)(C)C#N)c2)cc1Nc1ccc2ncn(C)c(=O)c2c1 | 14.7 | < 0 | 25.8 | < 0 | 42.5 | 39.6 | 50.6 | 21.2
COc1cc(OC)cc(-c2ccc3ncc4ccc(=O)n(-c5ccc(N6CCNCC6)c(C(F)(F)F)c5)c4c3c2)c1 | < 0 | 14.4 | 20.2 | 4.38 | < 0 | 11.9 | < 0 | 6.65
CNS(=O)(=O)Cc1ccc2[nH]cc(CCN(C)C)c2c1 [Sumatriptan succinate] | < 0 | < 0 | < 0 | < 0 | < 0 | < 0 | < 0 | < 0
C[C@@](Cc1ccc(O)c(O)c1)(NN)C(=O)O [Carbidopa] | < 0 | < 0 | < 0 | < 0 | 1.2 | < 0 | 6.05 | < 0
Cc1nnc(NS(=O)(=O)c2ccc(N)cc2)s1 [Sulfamethizole] | < 0 | < 0 | < 0 | < 0 | < 0 | < 0 | < 0 | < 0
CC(C)[C@H](C(=O)Nc1ccc(C(=O)NO)cc1)c1ccccc1 | 10.5 | 3.54 | 37.9 | 3.12 | 43.9 | 36.5 | 33.7 | 72.6
O=NN(CCCl)C(=O)NCCCl [Carmustine] | < 0 | < 0 | < 0 | < 0 | < 0 | < 0 | < 0 | < 0
C[C@@H](NCCCc1cccc(C(F)(F)F)c1)c1cccc2ccccc12 [Cinacalcet hydrochloride] | < 0 | < 0 | < 0 | < 0 | < 0 | < 0 | < 0 | < 0
O=C(c1ccc(F)cc1)C1CCN(CCn2c(=O)[nH]c3ccccc3c2=O)CC1 [Ketanserin] | < 0 | < 0 | < 0 | < 0 | < 0 | < 0 | 1.08 | < 0
Nc1ncn([C@@H]2O[C@H](CO)[C@@H](O)[C@H]2O)c(=O)n1 [Azacitidine] | < 0 | < 0 | 12.9 | < 0 | < 0 | 27.8 | 14.4 | < 0
CC(=O)OC[C@H]1O[C@@H](n2ccc(=O)[nH]c2=O)[C@H](OC(C)=O)[C@@H]1OC(C)=O [Uridine triacetate] | 2.61 | < 0 | < 0 | < 0 | < 0 | 6.37 | < 0 | < 0
C/C=C1\[C@H]2C=C(C)C[C@]1(N)c1ccc(=O)[nH]c1C2 [Huperizine A] | < 0 | < 0 | < 0 | < 0 | < 0 | < 0 | < 0 | < 0
O=C(C1CCCCC1)N1CC(=O)N2CCc3ccccc3C2C1 (stereo unspecified) [Praziquantel] | < 0 | < 0 | < 0 | < 0 | < 0 | < 0 | 0.24 | < 0
c1coc(CNc2ncnc3[nH]cnc23)c1 [Kinetin] | < 0 | < 0 | < 0 | < 0 | < 0 | < 0 | < 0 | < 0
CCCCC[C@H](O)/C=C/[C@H]1[C@H](O)CC(=O)[C@@H]1C/C=C\CCCC(=O)O [Dinoprostone] | < 0 | < 0 | < 0 | < 0 | < 0 | < 0 | < 0 | < 0
O=C1[C@H](Cc2ccc(O)cc2)N2C(=O)CCN(C(=O)NCc3ccccc3)[C@H]2CN1Cc1cccc2ccccc12 | < 0 | < 0 | < 0 | < 0 | < 0 | < 0 | < 0 | < 0

Record cards, as listed above. Values in the order: reduction in cell viability (M229P) [%]	reduction in cell viability (M229R) [%]	reduction in cell viability (M238P) [%]	reduction in cell viability (M238R) [%]	reduction in cell viability (M249P) [%]	reduction in cell viability (M249R) [%]	reduction in cell viability (UACC62P) [%]	reduction in cell viability (UACC62R) [%]
COc1cc(OC)cc(-c2ccc3ncc4ccc(=O)n(-c5ccc(N6CCNCC6)c(C(F)(F)F)c5)c4c3c2)c1 as listed: < 0	14.4	20.2	4.38	< 0	11.9	< 0	6.65
C[C@@](Cc1ccc(O)c(O)c1)(NN)C(=O)O [Carbidopa] as listed: < 0	< 0	< 0	< 0	1.2	< 0	6.05	< 0
Cc1ccc(NC(=O)c2cccc(C(C)(C)C#N)c2)cc1Nc1ccc2ncn(C)c(=O)c2c1 as listed: 14.7	< 0	25.8	< 0	42.5	39.6	50.6	21.2

The results go on.

SMILES | reduction in cell viability (M229P) [%] | reduction in cell viability (M229R) [%] | reduction in cell viability (M238P) [%] | reduction in cell viability (M238R) [%] | reduction in cell viability (M249P) [%] | reduction in cell viability (M249R) [%] | reduction in cell viability (UACC62P) [%] | reduction in cell viability (UACC62R) [%]
Cc1cn([C@H]2C[C@H](N=[N+]=[N-])[C@@H](CO)O2)c(=O)[nH]c1=O [Zidovudine] | < 0 | < 0 | < 0 | < 0 | < 0 | < 0 | 2.88 | < 0
O=C(NC[C@H](O)CO)c1ccncc1Nc1ccc(I)cc1F [Pimasertib] | 29.1 | < 0 | 36.9 | < 0 | 90.7 | 46.4 | 62.6 | 50.1
CCCS(=O)(=O)Nc1ccc(F)c(C(=O)c2c[nH]c3ncc(-c4ccc(Cl)cc4)cc23)c1F [Vemurafenib (PLX4032, RG7204)] | 1.17 | 6.65 | 24.4 | < 0 | 1.97 | < 0 | 42.8 | < 0
CCCCc1ccc2[nH]c(NC(=O)OC)nc2c1 [Parbendazole] | 33.6 | 34.2 | 53.4 | 59.1 | 62.3 | 57.1 | 57.4 | 93.2
CC(C)C[C@H](CC(=O)O)C(=O)N[C@@H](Cc1c[nH]c2ccccc12)C(=O)N[C@@H](C)c1ccccc1 | < 0 | < 0 | < 0 | < 0 | < 0 | < 0 | < 0 | < 0
c1ccc2c(Cc3c[nH]c4ccccc34)c[nH]c2c1 [Diindolylmethane] | < 0 | < 0 | < 0 | < 0 | < 0 | 8.3 | < 0 | < 0
CCCCC[C@H](O)/C=C/[C@H]1[C@H](O)CC(=O)[C@@H]1CCCCCCC(=O)O [Alprostadil] | < 0 | < 0 | < 0 | < 0 | < 0 | < 0 | < 0 | < 0
CCOC(=O)[C@H]1O[C@@H]1C(=O)N[C@@H](CC(C)C)C(=O)NCCC(C)C [Aloxistatin] | < 0 | < 0 | < 0 | < 0 | < 0 | < 0 | 3.75 | < 0
Cc1ccc2c(c1)C(=O)C1(O)CCN(c3ccccc3)C1=N2 (single isomer, unassigned; (-)) [(-)-Blebbistatin] | < 0 | < 0 | < 0 | < 0 | < 0 | < 0 | < 0 | < 0
COc1cc2c(cc1-c1c(C)noc1C)ncc1[nH]c(=O)n([C@H](C)c3ccccn3)c12 | < 0 | < 0 | < 0 | < 0 | < 0 | 19.3 | 19.4 | 9.61
CCCCCCCCCCCCCCCC(=O)OC[C@@H](NC(=O)C(Cl)Cl)[C@H](O)c1ccc([N+](=O)[O-])cc1 [Chloramphenicol palmitate] | < 0 | < 0 | < 0 | < 0 | < 0 | < 0 | < 0 | < 0
CNC(=O)Nc1ccc(-c2nc(N3CC4CCC(C3)O4)c3cnn(C4CCC5(CC4)OCCO5)c3n2)cc1 | 50.6 | 44.8 | 50.4 | 48.1 | 61.1 | 62.1 | 62.7 | 59.5
COc1cc2c(cc1OC)CN(CCc1ccc(NC(=O)c3cc(OC)c(OC)cc3NC(=O)c3cnc4ccccc4c3)cc1)CC2 [Tariquidar] | < 0 | < 0 | < 0 | < 0 | < 0 | < 0 | < 0 | < 0
CC(=O)NCC(=O)N1[C@@H]2CC[C@H]1c1ccc(Nc3ncc(C(F)(F)F)c(NC4CCC4)n3)cc12 | 7.96 | 2.91 | 27.4 | 37.5 | 5.23 | 0.57 | 26.7 | 59.5
Nc1nc2c(ncn2COCCO)c(=O)[nH]1 [Aciclovir] | < 0 | < 0 | < 0 | < 0 | < 0 | < 0 | < 0 | < 0
CCOC(=O)c1ccc(C#Cc2ccc3c(c2)C(C)(C)CCS3)nc1 [Tazarotene] | < 0 | 2.03 | < 0 | < 0 | < 0 | < 0 | 11.9 | < 0

— the supplement of paper PMC9015667
